Over roughly 33,000 sequences, “E-score (-0.5 to 0.5)” has its median near -0.0059; the highest 2% begin near 0.26. The list shows a part of the results.
Target: T1, Cin5 (UniProt P40917)
T1 sequence: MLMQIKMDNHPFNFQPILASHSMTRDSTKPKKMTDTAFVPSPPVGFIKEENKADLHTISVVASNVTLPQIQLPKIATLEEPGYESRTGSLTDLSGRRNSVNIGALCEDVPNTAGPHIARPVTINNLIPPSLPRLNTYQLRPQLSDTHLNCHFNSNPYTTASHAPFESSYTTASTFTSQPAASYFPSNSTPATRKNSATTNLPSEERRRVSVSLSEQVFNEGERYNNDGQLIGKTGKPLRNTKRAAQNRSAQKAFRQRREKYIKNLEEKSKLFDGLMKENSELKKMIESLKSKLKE
Assay: PBM E-score (8-mer binding enrichment) (E-score (-0.5 to 0.5)); higher = stronger / more preferred TF binding
Settings: protein concentration: 100 nM; construct: GST-full length
How it was run: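 Full-length yeast transcription factors or their DNA-binding domains, GST-tagged and expressed with PURExpress, were applied at about 100-200 nM to universal all-10-mer Agilent arrays. These arrays had been made double-stranded by primer extension on fresh or once-stripped slides. Detection used fluorescent anti-GST, normalisation used masliner, and E-scores for ungapped eight-base words pooled with reverse complements came from the Universal PBM Analysis Suite.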

| Sequence | PBM E-score |
| --- | --- |
| AAACTTCC | -0.109 |
| AACGCGTT | 0.0467 |
| GTTCCCCA | -0.066 |
| TAGGAACA | -0.143 |
| GATGTGAA | 0.18 |
| AAACGAAA | 0.191 |
| AAGCTCAG | -0.067 |
| TAAGCTCA | 0.135 |
| CCACACGA | -0.0307 |
| CGTTTGAG | -0.0334 |
| GAACTTCC | -0.0174 |
| TGGTATAA | 0.167 |
| AGATATCA | 0.193 |
| CATAACGC | 0.0116 |
| CATAGCGC | 0.139 |
| GTAATTGA | 0.159 |
| GATTTACC | 0.146 |
| CTAGCTAC | -0.176 |
| ATGGCAAT | 0.113 |
| GACCGGGA | -0.139 |
| AATGTCCA | -0.0175 |
| CAAATTCA | -0.0144 |
| AACAAGCT | 0.053 |
| GTTTGGGA | 0.0363 |
| ACACCACT | 0.245 |

| Sequence | PBM E-score |
| --- | --- |
| CCACCCGC | -0.0493 |
| GATTCAAA | 0.0509 |
| CATCCCAC | -0.0487 |
| GATAGTGC | -0.051 |
| ACTAATGG | 0.0831 |
| CAGAGCCG | -0.0563 |
| CGGCGCCA | -0.132 |
| ACGCCCCG | -0.123 |
| CCTGACAC | 0.0704 |
| ATACCTAG | 0.103 |
| AAGAGGAG | -0.205 |
| AGTGTGTA | 0.179 |
| CACCTTTA | -0.0895 |
| GAGTTATC | 0.155 |
| CTCATCTA | -0.0299 |
| ACACTCGT | -0.018 |
| AACATTAA | 0.114 |
| TACCGGGA | 0.0375 |
| AGTACAGA | 0.0247 |
| CGAATCAG | 0.0186 |
| ACCGCATC | -0.0146 |
| AGATCACC | -0.0322 |
| CGCGATTC | 0.124 |
| AGCACTGG | -0.083 |
| GATCCAAA | 0.146 |

| Sequence | PBM E-score |
| --- | --- |
| CCACTGAG | -0.213 |
| TACTACTA | 0.248 |
| AGCTCACC | -0.0382 |
| ACAACCAT | 0.306 |
| AGTCCGAG | 0.0777 |
| CTGTGGGA | -0.0973 |
| CTAATTTC | 0.0506 |
| GCGATAGC | -0.0267 |
| TAGAGAAA | -0.0181 |
| CAAATACA | 0.202 |
| GCTTCATA | 0.0833 |
| AAGCAAAA | 0.111 |
| CACACGGG | -0.117 |
| AATACAAG | 0.294 |
| CAGCTCCA | -0.00403 |
| CCGCCCCC | -0.375 |
| CTCGAAAC | 0.053 |
| CAGCGGGC | -0.0249 |
| CAAACAGG | -0.15 |
| AAAAACTT | -0.0892 |
| CCTGCTCC | -0.132 |
| AATCATGA | 0.186 |
| AATAAAAG | 0.0785 |
| CCAAGTCA | 0.0677 |
| TCAAGACA | 0.0207 |

| Sequence | PBM E-score |
| --- | --- |
| AGTTTGGC | 0.0472 |
| GGGACTCA | -0.303 |
| TCGCACGA | -0.104 |
| CAGATTCG | -0.00465 |
| CCAGACCC | -0.233 |
| ACCAGATG | -0.091 |
| CCGAGGGA | -0.287 |
| GGTGACAC | -0.0788 |
| AGGCGCCA | -0.0123 |
| CGGGCCCC | -0.12 |
| CGCTCTGC | -0.13 |
| AACTCGTA | 0.219 |
| ATTTCCTC | 0.09 |
| CATAGCGG | -0.139 |
| AACGCACA | 0.0815 |
| GCCGCGGC | 0.214 |
| ATCATGGA | -0.00019 |
| CGAGAAAG | 0.0439 |
| AAGTTTGC | 0.19 |
| CGAGCAGA | -0.17 |
| GCGACCGA | 0.0144 |
| AACTTCCC | 0.0423 |
| GGGTTAAA | -0.0784 |
| AATGGAGC | -0.0442 |
| GGTCCGAC | -0.153 |

| Sequence | PBM E-score |
| --- | --- |
| CAGTTTCG | 0.00376 |
| CTTCTGTA | -0.0475 |
| CCTCCCCG | 0.0326 |
| CGATCAAA | -0.00971 |
| AGGAATTA | 0.208 |
| TAACCGCA | 0.24 |
| ATGCTTGG | -0.0358 |
| CTACGAGA | -0.0322 |
| ATCGATCC | -0.0004 |
| CATGCGCG | -0.00114 |
| AAGAAGTC | -0.0774 |
| ATTTTTCA | 0.131 |
| AGAAGAGA | -0.0776 |
| CAACTCAG | -0.023 |
| AGATGCAT | 0.189 |
| ACCTTACG | 0.0253 |
| GGATATTA | 0.143 |
| CGTGTGCC | -0.197 |
| GCAGCCCC | -0.0754 |
| ATGGCGCG | -0.0464 |
| AGGAGACC | -0.201 |
| CCGTGCGC | -0.0601 |
| CATGATGC | 0.0839 |
| AACGTCGG | -0.0613 |
| ATAGCTTA | 0.154 |

Looked up one by one from the list above:

| Sequence | PBM E-score |
| --- | --- |
| CAACTCAG | -0.023 |
| ACCTTACG | 0.0253 |
| AGTTTGGC | 0.0472 |
| CTGTGGGA | -0.0973 |
| CTTCTGTA | -0.0475 |

(continued)

| Sequence | PBM E-score |
| --- | --- |
| ATGGCTAG | 0.0457 |
| ATCCTCTA | -0.16 |
| GGTAAGAA | 0.011 |
| ATTTTCAG | 0.212 |
| TCGACAAA | 0.0681 |
| GCTAGCCC | -0.131 |
| CTAGCGGA | -0.092 |
| GTAAACCA | 0.0303 |
| CACGCGGG | -0.182 |
| CGAGGCTC | -0.255 |
| ATTCGTAG | 0.016 |
| CTCCCCAC | -0.108 |
| AGTAATGC | 0.0695 |
| AACCGAGA | 0.103 |
| GCTTCGCC | -0.297 |
| CCTTATCG | -0.0177 |
| AGGTACGC | 0.0585 |
| AACGCTGG | -0.115 |
| ACGTATTC | 0.112 |
| AGCCGAAT | 0.086 |
| CATATCAA | 0.228 |
| CGCTAGGC | -0.204 |
| GGCCCCAA | -0.0478 |
| CAGGTATA | 0.0165 |
| AAGATAGA | 0.0499 |

| Sequence | PBM E-score |
| --- | --- |
| ACTTGCGG | -0.21 |
| ACCAGCTG | -0.0831 |
| AAGTCAGG | 0.0721 |
| TACGTACA | 0.229 |
| TCGCAAGA | -0.0527 |
| TCCCCTAA | 0.0848 |
| CTTGACGC | -0.162 |
| GTCGGAGA | -0.142 |
| ACTGCTGC | 0.0432 |
| ATCCAGAG | 0.161 |
| AGTCAGCG | 0.0287 |
| GAACCACC | 0.0658 |
| GTGCAAAA | -0.037 |
| AAATTCAG | 0.0731 |
| CCATAGGA | -0.0839 |
| TCCAGGAA | -0.0393 |
| ACCAATAA | 0.0617 |
| CTGCGTAA | 0.0291 |
| CACCCAAA | 0.115 |
| CTTTTGCA | 0.0331 |
| AACCTAGC | -0.0341 |
| CCGTTGGA | -0.123 |
| AGAGAGAG | -0.0167 |
| ATAACCCA | 0.0804 |
| GATTGTCA | 0.0599 |

| Sequence | PBM E-score |
| --- | --- |
| TCCGACGA | 0.0651 |
| TGCGTCAA | -0.0866 |
| CAATTCCC | 0.112 |
| CATTGCAC | 0.145 |
| ACATTAAT | 0.106 |
| CTTCAATC | -0.0206 |
| CGGAGGGC | -0.163 |
| AAAATGAC | 0.0872 |
| ACCCTCGA | -0.204 |
| GTACAAGA | -0.059 |
| AGCTGTTA | 0.00406 |
| CAAATAGA | 0.2 |
| CTCCTAGA | -0.158 |
| AGAACCCT | -0.209 |
| ATTGAGCA | 0.0163 |
| AAGCTGTA | 0.202 |
| CGCAGTCA | -0.091 |
| ACATGACT | -0.0712 |
| ACCTGTGG | -0.18 |
| CTATTGCA | 0.0887 |
| ACGCATAC | 0.00499 |
| ACCGTCGC | -0.0621 |
| AGTTTCAC | 0.0197 |
| CGCTGGAC | -0.209 |
| AGAGTGGG | -0.13 |

| Sequence | PBM E-score |
| --- | --- |
| ACTTCCGC | 0.0231 |
| ATAATCGA | 0.178 |
| CAGTTGGG | -0.121 |
| CAGTTCCC | 0.0355 |
| ACGGCTGC | -0.192 |
| CTCAGGAG | -0.198 |
| CAGACTAG | -0.237 |
| CCATCGAA | 0.0633 |
| CACCAGTG | -0.0701 |
| CACGGAGG | -0.173 |
| CATACGGG | -0.166 |
| CAAGTATA | -0.0347 |
| AGGGAAGA | -0.252 |
| AGCCGTCG | -0.0268 |
| AAATACTG | 0.161 |
| ACTGCGCG | -0.0752 |
| GACTATTA | 0.0205 |
| TTTAAAAA | -0.124 |
| ATGGATAA | 0.239 |

5 neighbouring records already listed:

| Sequence | PBM E-score |
| --- | --- |
| CACGGAGG | -0.173 |
| CATACGGG | -0.166 |
| CAAGTATA | -0.0347 |
| AGGGAAGA | -0.252 |
| AGCCGTCG | -0.0268 |

— the supplement of paper PMC3334620
